These are yes or no findings as the source states them, for the method shown. For part of these data: Binding seen in cells or lysates may run through a third protein. Some results given as binding are weak or reduced against the parent protein; the word gives no strength.
What was measured:
GST-tagged peripherin = GST-tagged peripherin (UniProt P41219); test: pull-down; purified His-RAB7A incubated with GST or GST-peripherin in PBS with 2 mM MgCl2 and 0.8 mM GTP for 1 h; glutathione resin; blot with anti-RAB7A; both purified
HA-tagged RAB7A wt [1] = molecular target: HA-tagged RAB7A wt (UniProt P18067); test: co-IP; HeLa cells expressing HA-RAB7A wt and MYC-peripherin 45 and/or MYC-peripherin 58; anti-HA immunoprecipitation; blot with anti-peripherin
HA-tagged RAB7A V162M = molecular target: T1, HA-tagged RAB7A V162M (UniProt P18067 1-207, V162M); test: co-IP; as the co-immunoprecipitation in Neuro2A cells, but in PC12 cells; data not shown
T1 construct: RAB7A with a CMT2B disease mutation; plasmid described previously; also called disease-causing mutant; source: Neuro2A or PC12 cells, transfected, in lysate

Sequences of proteins named here, by UniProt entry; tags and fusion partners are left off. A change or cut given only in a name is not applied to a line headed by its entry. Residues count along the entry.
UniProt P41219: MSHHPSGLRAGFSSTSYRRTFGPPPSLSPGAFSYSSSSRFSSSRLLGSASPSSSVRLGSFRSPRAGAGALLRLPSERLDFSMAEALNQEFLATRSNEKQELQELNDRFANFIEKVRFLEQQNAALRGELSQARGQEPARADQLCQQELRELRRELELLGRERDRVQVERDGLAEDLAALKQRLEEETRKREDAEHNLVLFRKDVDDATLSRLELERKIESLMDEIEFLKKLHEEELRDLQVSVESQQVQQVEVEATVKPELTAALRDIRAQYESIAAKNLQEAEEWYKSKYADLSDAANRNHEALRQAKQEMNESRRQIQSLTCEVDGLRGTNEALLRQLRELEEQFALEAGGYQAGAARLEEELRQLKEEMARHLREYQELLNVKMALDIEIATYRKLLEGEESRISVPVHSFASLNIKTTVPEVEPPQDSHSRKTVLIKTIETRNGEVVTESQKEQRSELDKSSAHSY
UniProt P18067: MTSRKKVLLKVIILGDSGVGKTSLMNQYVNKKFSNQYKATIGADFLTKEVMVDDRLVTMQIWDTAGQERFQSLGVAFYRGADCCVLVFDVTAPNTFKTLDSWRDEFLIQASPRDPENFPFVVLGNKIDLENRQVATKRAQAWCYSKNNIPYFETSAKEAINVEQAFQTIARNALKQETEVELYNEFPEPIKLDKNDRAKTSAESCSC
GAL4-binding domain/RAB7A ΔC fusion construct: residues 1-204 of P18067
UniProt P51150: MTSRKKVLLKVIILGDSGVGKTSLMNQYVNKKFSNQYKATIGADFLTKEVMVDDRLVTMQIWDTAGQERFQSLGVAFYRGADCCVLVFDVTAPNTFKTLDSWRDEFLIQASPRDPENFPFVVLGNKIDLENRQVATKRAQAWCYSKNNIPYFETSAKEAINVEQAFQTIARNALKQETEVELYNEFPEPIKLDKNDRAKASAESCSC
UniProt P21807: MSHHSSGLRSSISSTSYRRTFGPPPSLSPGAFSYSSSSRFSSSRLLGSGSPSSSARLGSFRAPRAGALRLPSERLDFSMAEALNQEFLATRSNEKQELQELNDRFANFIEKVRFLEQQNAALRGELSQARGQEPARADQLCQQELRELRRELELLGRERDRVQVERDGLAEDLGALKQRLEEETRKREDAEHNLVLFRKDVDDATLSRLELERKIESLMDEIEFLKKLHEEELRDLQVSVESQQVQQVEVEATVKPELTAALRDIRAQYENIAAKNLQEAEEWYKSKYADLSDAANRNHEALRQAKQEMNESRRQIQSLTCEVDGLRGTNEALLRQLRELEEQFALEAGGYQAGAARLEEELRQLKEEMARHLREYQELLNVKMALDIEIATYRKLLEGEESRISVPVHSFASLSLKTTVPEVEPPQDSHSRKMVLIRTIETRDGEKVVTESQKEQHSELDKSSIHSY

HA-tagged RAB7A wt [2] = molecular target: HA-tagged RAB7A wt (UniProt P18067); test: as above
HA-tagged RAB7A L129F = molecular target: T2, HA-tagged RAB7A L129F (UniProt P18067 1-207, L129F); test: as above
T2 construct: RAB7A with a CMT2B disease mutation; plasmid described previously; also called disease-causing mutant; source: Neuro2A or PC12 cells, transfected, in lysate

HA-tagged RAB7A K157N = molecular target: T3, HA-tagged RAB7A K157N (UniProt P18067 1-207, K157N); test: as above
T3 construct: RAB7A with a CMT2B disease mutation; plasmid described previously; also called disease-causing mutant; source: Neuro2A or PC12 cells, transfected, in lysate

HA-tagged RAB7A N161T = molecular target: T4, HA-tagged RAB7A N161T (UniProt P18067 1-207, N161T); test: as above
T4 construct: RAB7A with a CMT2B disease mutation; plasmid described previously; also called disease-causing mutant; source: Neuro2A or PC12 cells, transfected, in lysate

HA-tagged RAB7A Q67L [3] = molecular target: HA-tagged RAB7A Q67L (UniProt P18067); test: as above
MYC-tagged RAB7A wt [4] = molecular target: MYC-tagged RAB7A wt (UniProt P18067); test: as above
[5] = molecular target: GAL4-binding domain/RAB7A ΔC fusion construct (canine) (UniProt P18067); test: two-hybrid; screen of a human DRG cDNA library (Gal4 activation domain fusions in pGADT7Rec) with the Gal4-binding domain/RAB7A ΔC bait in AH109 yeast; synthetic medium lacking His, Leu and Trp, 30 °C
His-tagged RAB7A wt = His-tagged RAB7A wt (UniProt P18067); test: pull-down; 20 μg purified His-tagged RAB7A bound to NiNTA resin, incubated with Neuro2A cell extracts at 4 °C for 1 h; blot for peripherin; only the target purified
HA-tagged RAB7A wt [6] = molecular target: HA-tagged RAB7A wt (UniProt P18067); test: co-IP; Neuro2A cells transfected with HA- or MYC-tagged RAB7A; RIPA lysate; anti-HA or anti-MYC resin 1 h at 4 °C; blot for endogenous peripherin
HA-tagged RAB7A Q67L [7] = molecular target: HA-tagged RAB7A Q67L (UniProt P18067); test: as above
MYC-tagged RAB7A wt [8] = molecular target: MYC-tagged RAB7A wt (UniProt P18067); test: as above
[9] = molecular target: RAB7A (endogenous, Neuro2A cells) (mouse (endogenous in Neuro2A)) (UniProt P51150); test: co-IP; endogenous proteins; mouse anti-RAB7 antibody crosslinked to resin (DSS, Pierce kit), pre-cleared Neuro2A lysate; blot with rabbit anti-RAB7A and anti-peripherin

Measured: binding

His-tagged RAB7A wt (from UniProt P18067 1-207)
binds: GST-tagged peripherin

MYC-peripherin 45 (from UniProt P41219 82-470) (domain or fragment)
binds: HA-tagged RAB7A wt [1]

peripherin (endogenous, PC12 cells) (from UniProt P21807 1-468)
binds: HA-tagged RAB7A V162M | HA-tagged RAB7A wt [2] | HA-tagged RAB7A L129F | HA-tagged RAB7A K157N | HA-tagged RAB7A N161T | HA-tagged RAB7A Q67L [3] | MYC-tagged RAB7A wt [4]

peripherin, longest library clone (residue 280 to the end) (from UniProt P41219 280-470) (domain or fragment)
binds: [5]

B1: peripherin (endogenous, Neuro2A cells) (natural protein, mouse (endogenous in Neuro2A), UniProt P15331 1-475, looked up)
chain: MPSSASMSHHHSSGLRSSISSTSYRRTFGPPPSLSPGAFSYSSSSRFSSSRLLGSGSPSSSARLGSFRAPRAGALRLPSERLDFSMAEALNQEFLATRSNEKQELQELNDRFANFIEKVRFLEQQNAALRGELSQARGQEPARADQLCQQELRELRRELELLGRERDRVQVERDGLAEDLAALKQRLEEETRKREDAEHNLVLFRKDVDDATLSRLELERKIESLMDEIEFLKKLHEEELRDLQVSVESQQVQQVEVEATVKPELTAALRDIRAQYENIAAKNLQEAEEWYKSKYADLSDAANRNHEALRQAKQEMNESRRQIQSLTCEVDGLRGTNEALLRQLRELEEQFALEAGGYQAGAARLEEELRQLKEEMARHLREYQELLNVKMALDIEIATYRKLLEGEESRISVPVHSFASLSLKTTVPEMEPLQDSHSKKMVLIRTIETRDGEKVVTESQKEQHSDLDKSSIHSY
notes: peripherin endogenous in mouse Neuro2A neuroblastoma cells, detected with anti-peripherin antibodies; main form of 58 kDa (Per-58); also called Per-58; source: endogenous, Neuro2A lysate
binds: His-tagged RAB7A wt | HA-tagged RAB7A wt [6] | HA-tagged RAB7A Q67L [7] | MYC-tagged RAB7A wt [8] | [9]

Reference: article PMC3549248, “Charcot–Marie–Tooth type 2B disease-causing RAB7A mutant proteins show altered interaction with the neuronal intermediate filament peripherin” (Acta Neuropathologica, 2012)
